No constants are given. Whether binding was seen depends on the method and setting. In cells and extracts the contact can be indirect. These calls come from enrichment with a bait or labelling near it, and not all partners need be listed.

The source of these data is article PMC7237858.

In the test the target is SRSP, bait of the interactomics analysis (human). The experiment in a line: affinity purification with mass spectrometry; interactomics analysis of SRSP-interacting proteins; nano-LC-MS/MS; proteins with FDR ≤1% and unique peptides ≥2 selected.

B1: serine- and arginine-rich splicing factor 3 (SRSF3), identified by mass spectrometry among SRSP-interacting proteins (protein, UniProt P84103 1-164)
chain: MHRDSCPLDCKVYVGNLGNNGNKTELERAFGYYGPLRSVWVARNPPGFAFVEFEDPRDAADAVRELDGRTLCGCRVRVELSNGEKRSRNRGPPPSWGRRPRDDYRRRSPPPRRRSPRRRSFSRSRSRSLSRDRRRERSLSRERNHKPSRSFSRSRSRSRSNERK
With B1, the binding result was “binds”.
